{"source": "patent US5855906A", "about": "“Intravaginal drug delivery devices for the administration of 17β-oestradiol precursors” (priority 1994, dated 1999)", "origin": "cited, not measured here", "conditions": "cited from earlier work", "note": "The name of at least one read-out is uncertain.", "data": [{"smiles": "C[C@]12CC[C@@H]3c4ccc(O)cc4CC[C@H]3[C@@H]1CC[C@@H]2O", "note": "[17β-oestradiol]", "values": [{"measurement": "serum 17β-oestradiol level", "setting": "homogeneous ring 400 mg, at least first week, 10080 min", "value": "above 300 pg/ml"}, {"measurement": "mean 17β-oestradiol level", "setting": "shell ring, over 1 month, 43800 min", "value": "about 50 pg/ml"}]}]}
